Results taken from PubChem BioAssay AID485314 (National Center for Advancing Translational Sciences (NCATS), 2010).
Hit rate of the full screen: of about 340,000 compounds, about 4,500 (1.3%) were called active. Inconclusive means that the source gave no clear call. Such entries were picked first, then a sample of the others. Calls come from the whole dose curve; as a rule, active = well fitted inhibition curve with a large enough effect; inconclusive = small, poorly fitted or top-dose-only effect, or another doubt; inactive = no such curve, though single readings can be large or run the other way. Where the call is inconclusive, the potency comes from a doubtful curve fit.

molecular target: DNA polymerase beta (Homo sapiens) (UniProt P06746); assay: qHTS Assay for Inhibitors of DNA Polymerase Beta; details: Pol beta primer extension/strand displacement, fluorescence kinetic; activity change, negative = inhibition: at 114 µM (top of the series)
Procedure, shortened: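 Curves were derived by four-parameter Hill fits of normalized qHTS data. The kinetic fluorescent primer-extension read was taken at 0 and 10 min after 50 nM substrate, following a 15 min room-temperature preincubation of 10 nM enzyme with compounds.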
% is set by controls: 0 for no effect and ±100 for the full control effect; potency is the fitted concentration of half-maximal effect.

`O=C(Nc1nnc(C2CC2)s1)c1cccc(S(=O)(=O)N2CCc3ccccc32)c1` was tested. Which Potency did it give?
Its Potency is inconclusive: 89.1 µM [inhibitor, single point].

How did the Potency turn out when `CC(=O)c1ccc(NC(=O)COCc2cc(-c3ccco3)on2)cc1` was run?
Its Potency is inconclusive: 63.1 µM [inhibitor, single point].

`CCOc1ccc(/C=N/OC(C)C(=O)NCc2ccc3c(c2)OCO3)cc1` (configuration not stated) was tested. Which Potency did it give?
Its Potency is inconclusive: 100 µM [inhibitor, single point].

How did the Potency turn out when `Cc1ccc(NC(=O)CSc2nc(-c3ccco3)nc3cc(=O)[nH]n23)cc1C` was run?
Its Potency is active: 39.8 µM.

How did the Potency turn out when `CCCc1ccc(C(=O)NC(=O)c2ccccc2O)cc1` was run?
Its Potency is inconclusive: 89.1 µM [inhibitor, single point].

With `COc1ccc(-c2cn3cc(C(=O)NN)ccc3n2)cc1` as the compound, how does the Potency read?
The Potency was inconclusive: 15.8 µM [inhibitor, full curve].

`O=C1[C@@H]2C(Cc3ccc(O)cc3)NC3(C(=O)Nc4ccc(F)cc43)[C@@H]2C(=O)N1c1ccc(F)cc1` (some centres not stated) was tested. Which Potency did it give?
Its Potency is inconclusive: 79.4 µM [inhibitor, single point].

`CCOC(=O)C1=C(C)Nc2nc(SCC)[nH]c(=O)c2C1c1ccncc1` (configuration not stated) was tested. Which Potency did it give?
Its Potency is inconclusive: 0.224 µM [inhibitor, full curve, poor fit].

Which activity change, negative = inhibition does the source give for `COc1cc(/C=C2\C(=N)N3N=C(S(C)(=O)=O)SC3=NC2=O)cc(OC)c1OCCOc1ccccc1C` here?
Its activity change, negative = inhibition is inconclusive: -57.9% [inhibitor].

`COc1cccc(N2CCN(c3ccc4nnc(CCC(=O)Nc5ncccc5C)n4n3)CC2)c1` was tested. Which “activity change, negative = inhibition” value did it give?
Its value is inactive: 88%.

For `Cc1ccc(C(=O)COC(=O)CNC(=O)c2cccs2)cc1C`, which Potency is on record?
The Potency was inconclusive: 1.78 µM [inhibitor, full curve, poor fit].

Which “activity change, negative = inhibition” value does the source give for `Cc1nc(S/C(=C\c2ccc(OCc3ccccc3Cl)cc2)C(=O)O)n[nH]1` here?
The value was inactive: 1.49%.

How did the “activity change, negative = inhibition” value turn out when `c1ccc(CN(Cc2ccco2)C(c2ccncc2)c2nnnn2C2CCCC2)cc1` (configuration not stated) was run?
Its value is inactive: 16.2%.

How did the Potency turn out when `O=C(O)C(C(=O)/C=C/c1ccco1)=C1SCCS1` was run?
Its Potency is active: 25.1 µM.

`Cc1cc2c(=O)n(C)c(SCC(=O)Nc3ccccc3)nc2s1` was tested. Which “activity change, negative = inhibition” value did it give?
Its value is inactive: 52.6%.

How did the Potency turn out when `O=C(O)C1Cc2ccccc2CN1C(=O)COc1ccc(Br)cc1` (configuration not stated) was run?
The Potency was active: 31.6 µM.

For `Cc1c(NC(=O)c2ccco2)cccc1-c1nc2cccnc2s1`, which “activity change, negative = inhibition” value is on record?
The value was inactive: -3.59%.

`O=C(CSc1ccccc1)Nc1ccc(-c2nc3ccccc3[nH]2)cc1` was tested. Which Potency did it give?
Its Potency is active: 7.08 µM.

Which Potency does the source give for `O=C(Nc1ccc(Cl)cc1)c1cc(-c2cccs2)on1` here?
The Potency was inconclusive: 7.94 µM [inhibitor, full curve].

Which “activity change, negative = inhibition” value does the source give for `COc1ccccc1N1CCN(C(=O)CN2C(=O)COc3ccc(S(=O)(=O)N4CCC(C)CC4)cc32)CC1` here?
The value was inactive: 31.5%.

`Cc1ccc(-n2nnc(C(=O)Nc3cc(F)ccc3F)c2C)cc1F` was tested. Which “activity change, negative = inhibition” value did it give?
The value was inactive: 0.993%.

How did the Potency turn out when `C=CCn1c(NCc2ccccc2OC)nc2ccccc21` was run?
The Potency was inconclusive: 3.55 µM [inhibitor, partial curve].

`CCc1cccc2c(C(=O)COC(=O)c3nn(C)c(=O)c4ccccc34)c[nH]c12` was tested. Which Potency did it give?
Its Potency is inconclusive: 0.891 µM [inhibitor, partial curve, poor fit].

How did the “activity change, negative = inhibition” value turn out when `Cc1ccc(CNC(=O)CCc2nnc3ccc(N4CCC5(CC4)OCCO5)nn23)cc1` was run?
Its value is inactive: 14.4%.

With `O=C(CC(C(=O)NCc1ccccc1)c1nc2ccccc2c(=O)[nH]1)NCc1ccccc1` (configuration not stated) as the compound, how does the Potency read?
Its Potency is inconclusive: 79.4 µM [inhibitor, single point].

Which Potency does the source give for `COC(=O)c1c(C)oc2ccc(NS(=O)(=O)c3cc(OC)ccc3OC)cc12` here?
The Potency was inconclusive: 1.12 µM [inhibitor, full curve, poor fit].

How did the Potency turn out when `N#C/C(=C\c1ccccc1)c1ccccn1` was run?
Its Potency is inconclusive: 89.1 µM [inhibitor, single point].

`CCc1ccc(NCc2nc(-c3ccccc3)no2)cc1` was tested. Which Potency did it give?
The Potency was inconclusive: 89.1 µM [inhibitor, single point].

How did the Potency turn out when `CCOC(=O)c1sc(NC(=O)CSc2n[nH]c(-c3ccc(Cl)cc3Cl)n2)c(C#N)c1C` was run?
Its Potency is inconclusive: 89.1 µM [inhibitor, single point].

Which Potency does the source give for `COc1ccc2nc(NC(=O)c3cccc(-c4cc5ccccc5oc4=O)c3)sc2c1` here?
Its Potency is inconclusive: 39.8 µM [inhibitor, partial curve].

How did the Potency turn out when `CCCOC(=O)CSC1=C(C#N)C(c2ccccc2OCC)C(C#N)C(=O)N1` (configuration not stated) was run?
The Potency was inconclusive: 100 µM [inhibitor, single point].

For `Cc1cccc2c1-c1sc(C(=O)N(C)c3cccc(C(F)(F)F)c3)cc1CO2`, which Potency is on record?
Its Potency is inconclusive: 39.8 µM [inhibitor, partial curve, poor fit].

For `O=C(O)CSc1cc(NS(=O)(=O)c2ccc(Br)cc2)c2ccccc2c1O`, which Potency is on record?
The Potency was active: 89.1 µM.

Which Potency does the source give for `CSc1ccc(C(=S)N2CCN(CCO)CC2)cc1` here?
Its Potency is inconclusive: 100 µM [inhibitor, single point].

`CCc1ccc(C(=O)Cn2ncc(Cl)c(Cl)c2=O)cc1` was tested. Which Potency did it give?
Its Potency is active: 50.1 µM.

How did the activity change, negative = inhibition turn out when `Cc1c(C(=N)C(C#N)C#N)c(=N)oc2c1ccc1ccccc12` was run?
Its activity change, negative = inhibition is inconclusive: -30.6% [inhibitor].

`CCOC(=O)c1ccccc1N=Cc1c(O)c2ccccc2oc1=O` was tested. Which Potency did it give?
The Potency was inconclusive: 28.2 µM [inhibitor, single point].

Which Potency does the source give for `O=[N+]([O-])c1ccc(Cc2nnc(-c3ccccc3Cl)o2)cc1` here?
Its Potency is inconclusive: 17.8 µM [inhibitor, single point].

`Cc1cccc(Nc2nc(N)nc(CN3CCC(C(N)=O)CC3)n2)c1C` was tested. Which Potency did it give?
The Potency was inconclusive: 89.1 µM [inhibitor, single point].

With `CC(=O)N1CCN(C(C)=O)C1c1ccccc1` as the compound, how does the Potency read?
Its Potency is inconclusive: 3.55 µM [inhibitor, full curve].

For `CC(OC(=O)c1ccc([N+](=O)[O-])s1)C(=O)Nc1ncc(Cl)cc1Cl` (configuration not stated), which Potency is on record?
Its Potency is inconclusive: 79.4 µM [inhibitor, partial curve].

With `O=[N+]([O-])c1ccc2c(c1)nc1n2CCN(C2CCCCC2)C1` as the compound, how does the Potency read?
Its Potency is inconclusive: 100 µM [inhibitor, single point].

For `COc1ccc(CN(C)C(C)C(=O)Nc2ccc([N+](=O)[O-])cc2Cl)cc1OC` (configuration not stated), which Potency is on record?
The Potency was inconclusive: 89.1 µM [inhibitor, single point].

With `Cc1ccccc1NS(=O)(=O)c1ccc2[nH]cc(C(=O)N3CCCCC3)c(=O)c2c1` as the compound, how does the Potency read?
The Potency was inconclusive: 2 µM [inhibitor, full curve, poor fit].

With `Cc1cc2sc3nc(=O)n(-c4ccccc4)c(=O)n3c2cc1C` as the compound, how does the activity change, negative = inhibition read?
The activity change, negative = inhibition was inconclusive: -43.9% [inhibitor].

For `Cc1ccn2c(C(=O)N/N=C\c3cccs3)c(C)nc2c1`, which Potency is on record?
The Potency was inconclusive: 50.1 µM [inhibitor, partial curve].

Which Potency does the source give for `O=C(Nc1ccc(S(=O)(=O)Nc2ncccn2)cc1)c1ccc2ncsc2c1` here?
The Potency was inconclusive: 25.1 µM [inhibitor, full curve, poor fit].

How did the Potency turn out when `Cc1cc2nc(/C(C#N)=C\c3ccc(-c4ccccc4C(=O)O)o3)[nH]c2cc1C` was run?
The Potency was inconclusive: 39.8 µM [inhibitor, single point].

Which “activity change, negative = inhibition” value does the source give for `CCCC(=O)Nc1nnc(Sc2ccc(N(C)C)cc2)s1` here?
Its value is inactive: 5.14%.

For `CCN(C(=O)COC(=O)c1cc(-c2ccccc2)nc2c1c(C)nn2-c1ccc(C)cc1)C1CCS(=O)(=O)C1` (configuration not stated), which Potency is on record?
Its Potency is inconclusive: 14.1 µM [inhibitor, partial curve, poor fit].

With `CN(C)S(=O)(=O)c1cc(NC(=O)COC(=O)/C=C/c2ccco2)ccc1Cl` as the compound, how does the activity change, negative = inhibition read?
Its activity change, negative = inhibition is inconclusive: -42.2% [inhibitor].

With `Cc1cccc(-n2ccc(=O)c(C(=O)Nc3ccc(S(=O)(=O)Nc4nccs4)cc3)n2)c1` as the compound, how does the Potency read?
The Potency was active: 89.1 µM.

For `COC(=O)CSC(=S)N1CCCC(C)C1` (configuration not stated), which Potency is on record?
The Potency was inconclusive: 100 µM [inhibitor, single point].

How did the Potency turn out when `Cc1ccc(-c2cc(C(=O)N/N=C/c3ccccc3)n[nH]2)o1` was run?
Its Potency is inconclusive: 6.31 µM [inhibitor, full curve, poor fit].

How did the “activity change, negative = inhibition” value turn out when `O=C(NC(=O)c1cnccc1C(F)(F)F)Nc1ccccc1` was run?
The value was inactive: -1.75%.

`O=C(COc1ccc2c3c(c(=O)oc2c1)CCC3)Nc1ccc(CCO)cc1` was tested. Which Potency did it give?
Its Potency is inconclusive: 0.447 µM [inhibitor, full curve, poor fit].

`COc1ccc(CNC(=O)CSc2nnc3c(Cl)cc(C(F)(F)F)cn23)cc1OC` was tested. Which Potency did it give?
Its Potency is inconclusive: 79.4 µM [inhibitor, single point].

How did the Potency turn out when `CCCn1nnnc1NCc1ccc(F)cc1` was run?
Its Potency is inconclusive: 70.8 µM [inhibitor, single point].

How did the Potency turn out when `O=C1C2C3C=CC(CC3)C2C(=O)N1/N=C/c1ccc(O)c(O)c1` (configuration not stated) was run?
Its Potency is inconclusive: 4.47 µM [inhibitor, partial curve].

Which “activity change, negative = inhibition” value does the source give for `CC(C)c1ccc(C(=O)Nc2cc(-c3ccccc3F)nn2-c2ccccc2)cc1` here?
The value was inactive: -17.3%.

With `O=C1/C(=C/c2ccco2)Oc2c1ccc(O)c2CN1CCCCC1` as the compound, how does the Potency read?
Its Potency is active: 20 µM.

With `CCN(CC)c1ccc(/C=N/OCC(=O)Nc2cccc(C)c2)cc1` as the compound, how does the Potency read?
The Potency was inconclusive: 17.8 µM [inhibitor, single point].

With `CCOc1ccc(C2Nc3c(C)cccc3-c3cc(C)nn32)cc1` (configuration not stated) as the compound, how does the Potency read?
The Potency was inconclusive: 11.2 µM [inhibitor, partial curve].

For `CC(=O)Nc1ccc(NC(=O)C/C(C)=N/NC(=O)COc2cc(C)c(Br)cc2Br)cc1`, which Potency is on record?
The Potency was inconclusive: 79.4 µM [inhibitor, single point].

With `FC(F)Oc1ccc(NC(=S)NCc2ccccc2)cc1` as the compound, how does the “activity change, negative = inhibition” value read?
The value was inactive: -1.72%.

Which Potency does the source give for `CS(=O)(=O)N1CCc2cc(S(=O)(=O)NCCNS(=O)(=O)c3ccc4c(c3)CCN4S(C)(=O)=O)ccc21` here?
The Potency was inconclusive: 0.316 µM [inhibitor, full curve, poor fit].

With `CCOC(=O)C(/C=C(\C#N)C(=O)OCC)=C(/N)N1CCN(c2ccc(Cl)cc2)CC1` as the compound, how does the Potency read?
Its Potency is inconclusive: 50.1 µM [inhibitor, partial curve].
